Results on one substance are retold here after PMC5680261.

Chains of the proteins cited; added tags and fusions are not shown. Residues count along the entry.
UniProt Q9BXM7, residues 78-581: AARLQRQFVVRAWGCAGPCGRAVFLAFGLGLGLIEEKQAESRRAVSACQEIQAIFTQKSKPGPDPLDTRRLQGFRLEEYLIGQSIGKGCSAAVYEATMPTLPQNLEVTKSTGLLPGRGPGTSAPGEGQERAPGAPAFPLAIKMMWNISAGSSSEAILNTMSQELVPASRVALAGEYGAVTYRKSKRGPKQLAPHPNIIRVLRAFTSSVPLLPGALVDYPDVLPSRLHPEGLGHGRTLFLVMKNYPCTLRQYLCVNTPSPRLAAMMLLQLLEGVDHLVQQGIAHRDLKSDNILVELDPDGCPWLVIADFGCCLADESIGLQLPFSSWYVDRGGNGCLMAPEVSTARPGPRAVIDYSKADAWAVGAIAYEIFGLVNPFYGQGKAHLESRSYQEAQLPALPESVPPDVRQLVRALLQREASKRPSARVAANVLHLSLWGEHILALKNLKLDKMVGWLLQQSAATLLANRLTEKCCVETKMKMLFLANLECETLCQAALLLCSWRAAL
UniProt O95202, residues 116-739: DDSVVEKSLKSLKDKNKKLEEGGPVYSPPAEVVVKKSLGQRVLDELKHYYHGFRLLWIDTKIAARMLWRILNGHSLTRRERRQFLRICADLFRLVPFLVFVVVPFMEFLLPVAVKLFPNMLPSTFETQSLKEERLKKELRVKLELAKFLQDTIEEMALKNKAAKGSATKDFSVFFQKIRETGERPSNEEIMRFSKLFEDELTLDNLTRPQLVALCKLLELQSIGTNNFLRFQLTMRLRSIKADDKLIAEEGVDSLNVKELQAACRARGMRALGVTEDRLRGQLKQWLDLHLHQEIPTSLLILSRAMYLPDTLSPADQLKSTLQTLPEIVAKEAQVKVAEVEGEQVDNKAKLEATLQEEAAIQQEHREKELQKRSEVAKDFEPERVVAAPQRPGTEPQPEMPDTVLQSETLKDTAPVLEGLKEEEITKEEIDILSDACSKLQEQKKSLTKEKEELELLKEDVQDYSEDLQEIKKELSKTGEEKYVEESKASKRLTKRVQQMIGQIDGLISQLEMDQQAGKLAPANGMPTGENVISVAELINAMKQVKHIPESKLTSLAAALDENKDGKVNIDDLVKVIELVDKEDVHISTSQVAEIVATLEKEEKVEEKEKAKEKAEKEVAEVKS

This assay deals with PINK1-FLAG (UniProt Q9BXM7). In words: affinity purification with mass spectrometry; PINK1-FLAG expressed in HEK293 cells and immunoprecipitated; interacting proteins determined by mass spectrometry-based interactomics.

These are yes or no findings as the source states them, for the method shown. Binding seen in cells or lysates may run through a third protein. A yes stands for co-enrichment or nearness to the bait. Other partners may have been found.

In the case of “leucine zipper-EF-hand containing transmembrane protein 1 (LETM1), found with PINK1-FLAG from HEK293 cells (from UniProt O95202-1 116-739)”, the binding entry is reported as “binds”.
